Measurements: patent publication US20040058943A1, “Medicinal composition for treatment of chronic cardiac failure” (priority 2001, published 2004)

Tested on: rats of heart failure after cardiac infarction prepared by coronary ligation
Settings: rat, in vivo, po, 1 mg/kg

Question: With `COc1ccccc1Oc1c(NS(=O)(=O)C=Cc2ccccc2)nc(-c2ncccn2)nc1OC.[K]` [Compound 1, N-[6-methoxy-5-(2-methoxyphenoxy)-2-(2-pyrimidinyl)-4-pyrimidinyl]-2-phenylethenesulfonamide potassium salt] as the compound, how does the “left ventricular systole and diastole function (LV+dP/dtmax, LVEDP)” value read?
Answer: ameliorated to the same level as that of the rats of the normal group
